Laboratory results as given in the supplement of paper PMC10849652.
Some of the results follow.

By UniProt entry, the sequences of proteins in these tests, tags left out. Where a name states a change or a piece, a line headed by the entry shows the natural chain unless it says otherwise.
UniProt Q9NVX2: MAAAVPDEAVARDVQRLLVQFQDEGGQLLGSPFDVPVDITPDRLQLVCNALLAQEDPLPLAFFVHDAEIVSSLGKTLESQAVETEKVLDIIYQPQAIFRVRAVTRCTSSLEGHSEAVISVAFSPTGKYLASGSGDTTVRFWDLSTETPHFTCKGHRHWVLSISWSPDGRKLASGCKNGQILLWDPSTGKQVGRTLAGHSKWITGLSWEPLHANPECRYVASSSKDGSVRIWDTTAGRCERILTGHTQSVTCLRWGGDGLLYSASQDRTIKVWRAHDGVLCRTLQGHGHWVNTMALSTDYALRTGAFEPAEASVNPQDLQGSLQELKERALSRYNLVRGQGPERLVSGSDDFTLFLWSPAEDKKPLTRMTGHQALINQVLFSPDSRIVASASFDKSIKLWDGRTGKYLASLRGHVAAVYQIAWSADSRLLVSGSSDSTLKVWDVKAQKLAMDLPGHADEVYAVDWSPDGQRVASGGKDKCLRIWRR
UniProt P18615, whole entry, looked up: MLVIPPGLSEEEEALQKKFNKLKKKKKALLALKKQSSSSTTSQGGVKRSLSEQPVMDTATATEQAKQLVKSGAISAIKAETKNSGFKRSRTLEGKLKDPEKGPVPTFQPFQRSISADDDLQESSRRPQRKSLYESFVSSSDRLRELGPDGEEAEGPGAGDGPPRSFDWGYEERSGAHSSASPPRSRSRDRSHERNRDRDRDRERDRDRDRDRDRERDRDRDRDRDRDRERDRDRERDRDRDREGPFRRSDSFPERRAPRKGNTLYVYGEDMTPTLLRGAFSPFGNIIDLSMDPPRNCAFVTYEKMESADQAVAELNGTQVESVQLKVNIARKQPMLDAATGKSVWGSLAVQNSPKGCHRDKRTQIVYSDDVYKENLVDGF
UniProt P08651, whole entry, looked up: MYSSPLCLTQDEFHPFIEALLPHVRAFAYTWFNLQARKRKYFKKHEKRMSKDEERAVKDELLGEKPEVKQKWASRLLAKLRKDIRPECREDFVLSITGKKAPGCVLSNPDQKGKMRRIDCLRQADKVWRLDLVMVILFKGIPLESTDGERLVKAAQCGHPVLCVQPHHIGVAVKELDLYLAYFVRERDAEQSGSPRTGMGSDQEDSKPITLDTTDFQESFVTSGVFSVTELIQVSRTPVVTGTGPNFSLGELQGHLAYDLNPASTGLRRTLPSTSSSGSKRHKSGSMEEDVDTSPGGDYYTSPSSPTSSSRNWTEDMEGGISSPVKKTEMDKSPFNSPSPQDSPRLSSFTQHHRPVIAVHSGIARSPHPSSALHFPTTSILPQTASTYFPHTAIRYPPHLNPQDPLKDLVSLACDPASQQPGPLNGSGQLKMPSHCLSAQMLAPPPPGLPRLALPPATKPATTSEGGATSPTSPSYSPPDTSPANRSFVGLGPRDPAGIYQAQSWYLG
UniProt Q12986: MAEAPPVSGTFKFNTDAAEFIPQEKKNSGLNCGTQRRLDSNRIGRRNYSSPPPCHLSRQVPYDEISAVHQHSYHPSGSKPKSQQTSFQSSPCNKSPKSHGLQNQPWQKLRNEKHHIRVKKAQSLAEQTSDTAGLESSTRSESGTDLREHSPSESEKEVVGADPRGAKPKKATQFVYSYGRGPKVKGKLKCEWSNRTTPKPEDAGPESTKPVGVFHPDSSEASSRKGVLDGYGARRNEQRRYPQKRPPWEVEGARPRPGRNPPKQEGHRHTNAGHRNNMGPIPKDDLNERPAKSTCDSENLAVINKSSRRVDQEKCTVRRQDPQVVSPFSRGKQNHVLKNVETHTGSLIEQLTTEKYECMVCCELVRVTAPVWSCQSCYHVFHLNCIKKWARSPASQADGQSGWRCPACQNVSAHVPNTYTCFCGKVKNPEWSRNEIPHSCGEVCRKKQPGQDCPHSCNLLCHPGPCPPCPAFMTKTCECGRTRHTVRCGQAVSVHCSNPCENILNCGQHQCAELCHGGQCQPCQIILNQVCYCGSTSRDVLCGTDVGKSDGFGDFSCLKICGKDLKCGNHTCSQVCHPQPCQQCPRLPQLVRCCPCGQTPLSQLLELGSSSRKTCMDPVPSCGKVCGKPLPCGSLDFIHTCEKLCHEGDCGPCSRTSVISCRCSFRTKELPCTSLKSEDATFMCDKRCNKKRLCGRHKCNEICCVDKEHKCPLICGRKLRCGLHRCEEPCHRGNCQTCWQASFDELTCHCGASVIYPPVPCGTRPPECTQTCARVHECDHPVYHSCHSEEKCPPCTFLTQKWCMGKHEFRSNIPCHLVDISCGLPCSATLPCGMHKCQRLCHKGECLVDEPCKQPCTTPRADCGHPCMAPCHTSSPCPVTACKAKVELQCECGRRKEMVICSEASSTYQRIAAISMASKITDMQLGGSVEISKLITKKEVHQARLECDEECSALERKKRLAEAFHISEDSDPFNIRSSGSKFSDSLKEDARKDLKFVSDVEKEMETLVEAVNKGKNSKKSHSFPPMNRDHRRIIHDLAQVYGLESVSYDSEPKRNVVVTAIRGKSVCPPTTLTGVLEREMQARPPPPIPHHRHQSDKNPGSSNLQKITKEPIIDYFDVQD
UniProt O43847: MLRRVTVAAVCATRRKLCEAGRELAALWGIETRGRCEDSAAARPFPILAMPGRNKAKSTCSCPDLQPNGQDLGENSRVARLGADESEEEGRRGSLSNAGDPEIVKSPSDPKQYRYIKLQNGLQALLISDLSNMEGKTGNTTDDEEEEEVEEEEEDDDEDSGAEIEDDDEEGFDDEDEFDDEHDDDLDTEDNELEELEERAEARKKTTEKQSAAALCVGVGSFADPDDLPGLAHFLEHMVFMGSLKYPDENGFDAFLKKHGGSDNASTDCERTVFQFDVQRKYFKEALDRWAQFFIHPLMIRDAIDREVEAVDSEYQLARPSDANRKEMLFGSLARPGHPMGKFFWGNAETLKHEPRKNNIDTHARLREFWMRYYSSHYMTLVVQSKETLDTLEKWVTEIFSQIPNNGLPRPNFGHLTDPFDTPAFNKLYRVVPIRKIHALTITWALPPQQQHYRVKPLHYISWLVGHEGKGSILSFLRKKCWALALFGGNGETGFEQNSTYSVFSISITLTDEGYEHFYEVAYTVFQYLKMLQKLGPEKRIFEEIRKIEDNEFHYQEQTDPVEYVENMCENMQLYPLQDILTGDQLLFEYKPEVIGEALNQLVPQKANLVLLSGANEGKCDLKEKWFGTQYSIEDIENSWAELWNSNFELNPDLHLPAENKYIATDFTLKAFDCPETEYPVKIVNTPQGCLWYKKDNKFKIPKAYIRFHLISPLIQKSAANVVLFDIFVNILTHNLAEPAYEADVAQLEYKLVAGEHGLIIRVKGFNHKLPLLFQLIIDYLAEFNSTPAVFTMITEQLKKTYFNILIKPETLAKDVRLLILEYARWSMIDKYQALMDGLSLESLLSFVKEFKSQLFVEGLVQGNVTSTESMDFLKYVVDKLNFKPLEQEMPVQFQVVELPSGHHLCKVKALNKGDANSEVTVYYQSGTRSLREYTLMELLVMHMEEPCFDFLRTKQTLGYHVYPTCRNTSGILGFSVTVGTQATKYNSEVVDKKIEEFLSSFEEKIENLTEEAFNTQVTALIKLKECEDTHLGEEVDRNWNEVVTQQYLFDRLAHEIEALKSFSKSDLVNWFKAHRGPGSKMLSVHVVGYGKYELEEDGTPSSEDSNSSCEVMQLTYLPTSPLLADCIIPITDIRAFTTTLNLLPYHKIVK
UniProt Q86UT6, whole entry, looked up: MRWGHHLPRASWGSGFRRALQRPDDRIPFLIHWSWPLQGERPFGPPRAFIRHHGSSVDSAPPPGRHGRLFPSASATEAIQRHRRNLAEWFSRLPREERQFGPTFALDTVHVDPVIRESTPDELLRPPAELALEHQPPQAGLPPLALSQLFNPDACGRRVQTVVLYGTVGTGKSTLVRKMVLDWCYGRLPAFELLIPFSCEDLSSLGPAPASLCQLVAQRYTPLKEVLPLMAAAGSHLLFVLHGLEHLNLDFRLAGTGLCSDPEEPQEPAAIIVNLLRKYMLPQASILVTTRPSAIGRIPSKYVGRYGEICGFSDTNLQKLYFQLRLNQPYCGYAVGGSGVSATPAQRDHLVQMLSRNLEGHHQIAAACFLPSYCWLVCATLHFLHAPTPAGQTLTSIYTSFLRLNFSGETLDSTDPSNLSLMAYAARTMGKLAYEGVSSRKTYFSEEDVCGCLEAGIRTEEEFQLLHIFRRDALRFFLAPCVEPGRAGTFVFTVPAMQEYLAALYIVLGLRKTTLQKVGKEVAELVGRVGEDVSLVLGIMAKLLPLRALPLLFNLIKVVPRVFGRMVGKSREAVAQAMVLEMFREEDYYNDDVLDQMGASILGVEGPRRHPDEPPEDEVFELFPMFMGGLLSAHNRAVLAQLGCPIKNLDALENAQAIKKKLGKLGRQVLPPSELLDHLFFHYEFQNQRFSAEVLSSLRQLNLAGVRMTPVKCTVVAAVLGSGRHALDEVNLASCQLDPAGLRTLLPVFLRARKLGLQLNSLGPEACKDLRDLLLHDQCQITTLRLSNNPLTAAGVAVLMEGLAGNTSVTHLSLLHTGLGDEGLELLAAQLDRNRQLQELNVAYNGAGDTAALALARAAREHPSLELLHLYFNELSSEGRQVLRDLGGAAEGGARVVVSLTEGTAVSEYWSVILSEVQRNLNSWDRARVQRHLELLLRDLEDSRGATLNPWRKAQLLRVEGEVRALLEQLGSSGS
UniProt P30414: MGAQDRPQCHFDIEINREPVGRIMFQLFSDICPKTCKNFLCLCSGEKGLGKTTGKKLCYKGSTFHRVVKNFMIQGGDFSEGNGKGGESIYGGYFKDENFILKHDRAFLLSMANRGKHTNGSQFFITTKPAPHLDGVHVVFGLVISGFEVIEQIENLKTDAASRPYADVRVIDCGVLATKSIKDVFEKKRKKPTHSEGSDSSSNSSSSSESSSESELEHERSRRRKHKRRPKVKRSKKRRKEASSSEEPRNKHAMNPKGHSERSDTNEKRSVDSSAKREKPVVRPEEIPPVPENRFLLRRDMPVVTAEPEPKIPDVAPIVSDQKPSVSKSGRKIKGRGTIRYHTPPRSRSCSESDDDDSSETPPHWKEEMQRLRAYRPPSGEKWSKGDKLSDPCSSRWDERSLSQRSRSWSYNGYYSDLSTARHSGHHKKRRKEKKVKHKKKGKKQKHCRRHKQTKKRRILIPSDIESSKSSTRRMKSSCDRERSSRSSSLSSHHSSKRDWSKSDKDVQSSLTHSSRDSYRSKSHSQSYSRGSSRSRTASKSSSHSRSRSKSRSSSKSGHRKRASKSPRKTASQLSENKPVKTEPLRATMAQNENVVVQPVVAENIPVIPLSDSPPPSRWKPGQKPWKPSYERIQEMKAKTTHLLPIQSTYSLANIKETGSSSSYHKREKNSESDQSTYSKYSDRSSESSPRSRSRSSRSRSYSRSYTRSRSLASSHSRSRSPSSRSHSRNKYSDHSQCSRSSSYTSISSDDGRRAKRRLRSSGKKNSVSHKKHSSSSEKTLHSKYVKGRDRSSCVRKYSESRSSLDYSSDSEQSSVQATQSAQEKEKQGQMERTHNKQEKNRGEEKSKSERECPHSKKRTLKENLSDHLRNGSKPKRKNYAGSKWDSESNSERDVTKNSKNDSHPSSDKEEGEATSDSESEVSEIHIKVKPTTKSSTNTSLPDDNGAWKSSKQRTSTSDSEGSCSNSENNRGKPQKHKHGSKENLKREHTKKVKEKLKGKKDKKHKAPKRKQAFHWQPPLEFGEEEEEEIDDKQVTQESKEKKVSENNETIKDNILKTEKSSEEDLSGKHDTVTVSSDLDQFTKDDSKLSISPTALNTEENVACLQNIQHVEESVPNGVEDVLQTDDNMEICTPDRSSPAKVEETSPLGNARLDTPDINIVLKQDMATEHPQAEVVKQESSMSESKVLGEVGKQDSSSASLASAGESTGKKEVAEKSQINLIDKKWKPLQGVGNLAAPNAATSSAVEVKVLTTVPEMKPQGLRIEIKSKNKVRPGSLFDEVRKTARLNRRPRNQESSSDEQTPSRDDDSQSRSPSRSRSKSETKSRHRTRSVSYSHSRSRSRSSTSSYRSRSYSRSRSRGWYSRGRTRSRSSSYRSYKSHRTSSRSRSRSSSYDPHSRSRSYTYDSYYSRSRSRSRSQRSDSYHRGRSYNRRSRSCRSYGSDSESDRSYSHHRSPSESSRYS
UniProt O00221: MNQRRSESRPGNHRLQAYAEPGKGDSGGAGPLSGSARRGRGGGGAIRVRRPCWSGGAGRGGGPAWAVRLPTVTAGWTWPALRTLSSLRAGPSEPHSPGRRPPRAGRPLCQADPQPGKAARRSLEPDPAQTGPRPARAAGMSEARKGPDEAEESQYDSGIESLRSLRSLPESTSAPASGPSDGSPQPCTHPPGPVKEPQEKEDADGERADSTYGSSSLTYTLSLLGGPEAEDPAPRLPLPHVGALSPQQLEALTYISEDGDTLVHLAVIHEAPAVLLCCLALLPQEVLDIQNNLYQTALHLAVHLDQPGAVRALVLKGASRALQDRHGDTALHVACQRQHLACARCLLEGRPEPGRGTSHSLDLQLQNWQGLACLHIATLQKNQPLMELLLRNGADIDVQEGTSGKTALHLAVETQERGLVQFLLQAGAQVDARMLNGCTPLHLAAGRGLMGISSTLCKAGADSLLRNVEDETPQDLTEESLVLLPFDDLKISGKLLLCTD

Legend:
Assay in all cases: log2 fold change, soluble protein after heating vs DMSO (PISA); higher = thermal stabilisation; K562 cells, 10 uM, 30 min; active = over 0.2 and 3.5 SD of the protein, either way, in both replicates (recomputed)
bafetinib = compound: Cc1ccc(NC(=O)c2ccc(CN3CC[C@H](N(C)C)C3)c(C(F)(F)F)c2)cc1Nc1nccc(-c2cncnc2)n1 [bafetinib]
How it was run: (§1)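 Aliquots of K562 cells (2×10^6 cells/mL) treated with 10 μM compound for 30 min were heated for 3 min over 48°C-58°C. After pooling and extraction in PBS with 0.5% NP-40 at 4°C, soluble protein from a 21,000xg, 90 min spin was quantified by TMTpro 16plex LC-MS/MS with channel sums equalised. Thermal stability is expressed against control samples, from duplicates, as a log2 fold change.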

[1] = compound: Cc1cccc(CC(=O)N2CCc3c2ccc(-c2cn(C)c4ncnc(N)c24)c3F)n1
How it was run: as §1

nilotinib = compound: Cc1cn(-c2cc(NC(=O)c3ccc(C)c(Nc4nccc(-c5cccnc5)n4)c3)cc(C(F)(F)F)c2)cn1 [nilotinib]
How it was run: as §1

[2] = compound: Cc1nc(Nc2n[nH]c3c2CN(C(=O)N[C@H](CN(C)C)c2ccccc2)C3(C)C)c2sccc2n1
How it was run: as §1

dasatinib = compound: Cc1nc(Nc2ncc(C(=O)Nc3c(C)cccc3Cl)s2)cc(N2CCN(CCO)CC2)n1 [dasatinib]
How it was run: as §1

[3] = compound: Cc1ncc(-c2ccnc(Nc3ccc(S(C)(=O)=O)cc3)n2)n1C(C)C
How it was run: as §1

[4] = compound: Cn1cc(-c2ccc3c(c2)CCN3C(=O)Cc2cccc(C(F)(F)F)c2)c2c(N)ncnc21
How it was run: as §1

[5] = compound: Cn1cc(-c2ccc3nnc(C(F)(F)c4ccc5ncccc5c4)n3n2)cn1
How it was run: as §1

tipifarnib = compound: Cn1cncc1[C@@](N)(c1ccc(Cl)cc1)c1ccc2c(c1)c(-c1cccc(Cl)c1)cc(=O)n2C [tipifarnib]
How it was run: as §1

mubritinib = compound: FC(F)(F)c1ccc(/C=C/c2nc(COc3ccc(CCCCn4ccnn4)cc3)co2)cc1 [mubritinib]
How it was run: as §1

Row | Target | log2 fold change (bafetinib) | log2 fold change [1] | log2 fold change (nilotinib) | log2 fold change [2] | log2 fold change (dasatinib) | log2 fold change [3] | log2 fold change [4] | log2 fold change [5] | log2 fold change (tipifarnib) | log2 fold change (mubritinib)
1 | NLE1 (UniProt Q9NVX2) | inactive: -0.042 | inactive: -0.007 | inactive: 0.011 | inactive: -0.06 | inactive: -0.043 | inactive: 0.043 | inactive: 0.02 | inactive: 0.017 | inactive: 0.016 | inactive: 0.02
2 | NPC1 (UniProt O15118) | active: -0.211 | inactive: -0.02 | inactive: 0.024 | inactive: -0.017 | inactive: -0.001 | inactive: 0.05 | inactive: 0.004 | inactive: 0.012 | inactive: 0.038 | inactive: -0.027
3 | NR2C2AP isoform 2 (UniProt Q86WQ0) | inactive: 0.037 | inactive: 0.03 | inactive: -0.072 | inactive: 0.003 | inactive: -0.095 | inactive: -0.008 | inactive: 0.028 | inactive: -0.016 | inactive: 0.007 | inactive: 0.072
4 | NPC2 (UniProt P61916) | inactive: -0.084 | inactive: -0.029 | inactive: 0.028 | inactive: -0.013 | inactive: 0.054 | inactive: -0.009 | inactive: 0.035 | inactive: 0.028 | inactive: 0.016 | inactive: 0.014
5 | NIBAN1 (UniProt Q9BZQ8) | inactive: -0.013 | inactive: 0.121 | inactive: -0.041 | active: -0.383 | inactive: -0.14 | inactive: -0.057 | inactive: 0.001 | inactive: -0.035 | inactive: -0.04 | inactive: 0.013
6 | NF1 (UniProt P21359) | inactive: -0.054 | inactive: -0.198 | inactive: -0.083 | inactive: 0.095 | inactive: 0.094 | inactive: -0.139 | inactive: 0.075 | inactive: 0.007 | inactive: 0.239 | inactive: 0.006
7 | NELFE isoform 3 (UniProt P18615) | inactive: -0.127 | inactive: -0.076 | inactive: -0.033 | inactive: -0.212 | inactive: -0.019 | inactive: 0.036 | inactive: -0.041 | inactive: 0.016 | inactive: 0.035 | inactive: 0.034
8 | NFIC (UniProt P08651) | inactive: 0.005 | inactive: 0.008 | inactive: 0.013 | inactive: 0.045 | inactive: 0.119 | inactive: -0.051 | inactive: 0.004 | inactive: -0.037 | inactive: 0.042 | inactive: 0
9 | NQO1 (UniProt P15559) | inactive: 0.025 | active: 0.365 | inactive: -0.001 | inactive: 0.003 | inactive: -0.033 | inactive: -0.022 | inactive: 0.049 | active: 0.291 | inactive: -0.089 | inactive: 0.025
10 | NIF3L1 (UniProt Q9GZT8) | inactive: -0.197 | inactive: -0.046 | inactive: -0.019 | inactive: 0.005 | inactive: 0.018 | inactive: -0.011 | inactive: 0.004 | inactive: 0.011 | inactive: 0.029 | inactive: 0.04
11 | NME2 isoform 2 (UniProt P22392) | inactive: -0.041 | inactive: -0.046 | inactive: 0.004 | inactive: 0.02 | inactive: 0.04 | inactive: -0.011 | inactive: 0.031 | inactive: 0.012 | inactive: 0.009 | inactive: 0.037
12 | NFX1 (UniProt Q12986) | inactive: -0.044 | inactive: -0.026 | inactive: -0.042 | inactive: 0.075 | inactive: 0.085 | inactive: -0.011 | inactive: 0.07 | inactive: -0.15 | inactive: 0.131 | inactive: -0.096
13 | NRDC isoform 2 (UniProt O43847) | inactive: 0.022 | inactive: 0.072 | inactive: -0.019 | inactive: -0.023 | inactive: -0.133 | inactive: 0.011 | inactive: -0.01 | inactive: -0.044 | inactive: -0.129 | inactive: 0.088
14 | NR2F2 (UniProt P24468) | inactive: 0.021 | inactive: 0.016 | inactive: 0.045 | inactive: -0.105 | inactive: 0.003 | inactive: -0.028 | inactive: 0.036 | inactive: 0.045 | inactive: -0.036 | inactive: 0.051
15 | NIPSNAP2 (UniProt O75323) | inactive: 0.02 | inactive: -0.012 | inactive: 0.082 | inactive: -0.003 | inactive: 0.05 | inactive: -0.033 | inactive: 0.185 | inactive: 0.025 | inactive: -0.058 | inactive: 0.041
16 | NOL3 isoform 3 (UniProt O60936) |  |  | inactive: -0.05 | inactive: -0.123 | inactive: -0.041 | inactive: -0.029 | inactive: 0.042 | inactive: 0.029 | inactive: 0.214 | inactive: -0.055
17 | NLRX1 (UniProt Q86UT6) |  |  | inactive: -0.13 | inactive: 0.162 |  | inactive: -0.168 |  |  | inactive: -0.13 | 
18 | NPRL3 (UniProt Q12980) |  |  |  |  | inactive: 0.141 |  |  |  |  | 
19 | NIPA1 (UniProt Q7RTP0) | inactive: -0.06 |  | inactive: -0.012 | inactive: -0.01 | inactive: 0.048 | inactive: -0.083 | inactive: 0.038 | inactive: 0.086 | inactive: 0.067 | inactive: -0.079
20 | NOL6 (UniProt Q9H6R4) | inactive: 0.1 | inactive: -0.116 |  |  | inactive: 0.033 |  | inactive: -0.203 | inactive: -0.236 | inactive: 0.317 | inactive: 0.019

10 entries from above in a different format.

| Row | Target | log2 fold change (bafetinib) | log2 fold change [1] | log2 fold change (nilotinib) | log2 fold change [2] | log2 fold change (dasatinib) | log2 fold change [3] | log2 fold change [4] | log2 fold change [5] | log2 fold change (tipifarnib) | log2 fold change (mubritinib) |
| --- | --- | --- | --- | --- | --- | --- | --- | --- | --- | --- | --- |
| 10 | NIF3L1 (UniProt Q9GZT8) | inactive: -0.197 | inactive: -0.046 | inactive: -0.019 | inactive: 0.005 | inactive: 0.018 | inactive: -0.011 | inactive: 0.004 | inactive: 0.011 | inactive: 0.029 | inactive: 0.04 |
| 11 | NME2 isoform 2 (UniProt P22392) | inactive: -0.041 | inactive: -0.046 | inactive: 0.004 | inactive: 0.02 | inactive: 0.04 | inactive: -0.011 | inactive: 0.031 | inactive: 0.012 | inactive: 0.009 | inactive: 0.037 |
| 12 | NFX1 (UniProt Q12986) | inactive: -0.044 | inactive: -0.026 | inactive: -0.042 | inactive: 0.075 | inactive: 0.085 | inactive: -0.011 | inactive: 0.07 | inactive: -0.15 | inactive: 0.131 | inactive: -0.096 |
| 13 | NRDC isoform 2 (UniProt O43847) | inactive: 0.022 | inactive: 0.072 | inactive: -0.019 | inactive: -0.023 | inactive: -0.133 | inactive: 0.011 | inactive: -0.01 | inactive: -0.044 | inactive: -0.129 | inactive: 0.088 |
| 14 | NR2F2 (UniProt P24468) | inactive: 0.021 | inactive: 0.016 | inactive: 0.045 | inactive: -0.105 | inactive: 0.003 | inactive: -0.028 | inactive: 0.036 | inactive: 0.045 | inactive: -0.036 | inactive: 0.051 |
| 15 | NIPSNAP2 (UniProt O75323) | inactive: 0.02 | inactive: -0.012 | inactive: 0.082 | inactive: -0.003 | inactive: 0.05 | inactive: -0.033 | inactive: 0.185 | inactive: 0.025 | inactive: -0.058 | inactive: 0.041 |
| 16 | NOL3 isoform 3 (UniProt O60936) |  |  | inactive: -0.05 | inactive: -0.123 | inactive: -0.041 | inactive: -0.029 | inactive: 0.042 | inactive: 0.029 | inactive: 0.214 | inactive: -0.055 |
| 17 | NLRX1 (UniProt Q86UT6) |  |  | inactive: -0.13 | inactive: 0.162 |  | inactive: -0.168 |  |  | inactive: -0.13 |  |
| 18 | NPRL3 (UniProt Q12980) |  |  |  |  | inactive: 0.141 |  |  |  |  |  |
| 19 | NIPA1 (UniProt Q7RTP0) | inactive: -0.06 |  | inactive: -0.012 | inactive: -0.01 | inactive: 0.048 | inactive: -0.083 | inactive: 0.038 | inactive: 0.086 | inactive: 0.067 | inactive: -0.079 |

Continued.

Row | Target | log2 fold change (bafetinib) | log2 fold change [1] | log2 fold change (nilotinib) | log2 fold change [2] | log2 fold change (dasatinib) | log2 fold change [3] | log2 fold change [4] | log2 fold change [5] | log2 fold change (tipifarnib) | log2 fold change (mubritinib)
21 | NOL8 (UniProt Q76FK4) |  | inactive: -0.381 |  |  | inactive: 0.07 |  |  |  | inactive: 0.165 | 
22 | NFKBIA (UniProt P25963) |  | inactive: 0.061 |  |  | inactive: 0.228 |  |  |  |  | 
23 | NEURL4 (UniProt Q96JN8) | inactive: -0.094 |  |  |  | inactive: 0.14 |  | inactive: 0.154 | inactive: -0.073 |  | 
24 | NKIRAS2 (UniProt Q9NYR9) |  |  | inactive: -0.082 | inactive: -0.074 |  | inactive: 0.051 |  |  |  | inactive: -0.091
25 | NFKB2 (UniProt Q00653) | inactive: -0.139 |  | inactive: 0.063 | inactive: -0.232 |  | inactive: -0.124 | inactive: -0.024 | inactive: -0.037 | inactive: 0.039 | inactive: 0.015
26 | NIPSNAP2 (UniProt C9J7B1) | inactive: -0.045 |  |  |  |  |  |  |  |  | inactive: 0.173
27 | NFATC1 (UniProt O95644) |  |  |  |  |  |  |  |  | inactive: 0.076 | inactive: -0.164
28 | NEO1 (UniProt Q92859) |  |  | inactive: 0.013 | inactive: -0.038 |  | inactive: -0.116 |  | inactive: 0.033 |  | inactive: 0
29 | NKTR (UniProt P30414) | inactive: 1.06 |  |  |  |  |  |  |  | inactive: 0.163 | inactive: 0.167
30 | NOC4L (UniProt Q9BVI4) |  | inactive: -0.145 | inactive: -0.014 | inactive: -0.887 |  | inactive: 0.089 |  |  |  | 
31 | NEU3 isoform 2 (UniProt Q9UQ49) |  |  |  |  |  |  |  |  | inactive: 0.044 | 
32 | NES (UniProt P48681) | inactive: -0.292 | inactive: -0.05 |  |  | inactive: 0.336 |  | inactive: 0.261 | inactive: 0.016 | inactive: 0.188 | inactive: 0.045
33 | NOP14 (UniProt P78316) |  | inactive: -0.027 | inactive: -0.173 | inactive: 0.052 | inactive: -0.022 | inactive: -0.118 | inactive: -0.163 |  |  | inactive: 0.025
34 | NRROS (UniProt Q86YC3) |  | inactive: -0.121 | inactive: -0.301 | inactive: 0.02 |  | inactive: 0.056 |  |  | inactive: 0.073 | 
35 | NFKBIE (UniProt O00221) |  | inactive: 0.038 | inactive: 0.019 | inactive: -0.345 | inactive: 0.029 | inactive: 0.027 | inactive: 0.021 | inactive: -0.074 | inactive: 0.027 | inactive: 0.15
36 | NMNAT3 (UniProt Q96T66) | inactive: 0.021 |  |  |  | inactive: 0.057 |  |  |  | inactive: 0.085 | inactive: -0.101
37 | NOLC1 isoform 3 (UniProt Q14978) |  |  |  |  |  |  | inactive: -0.015 |  |  | 
38 | NMRK1 (UniProt Q9NWW6) |  |  |  |  | inactive: 0 |  |  |  |  | 
39 | NOSTRIN isoform 4 (UniProt Q8IVI9) |  |  | inactive: 0.108 | inactive: -0.123 |  | inactive: -0.019 |  | inactive: -0.007 |  | inactive: -0.39
